Laboratory results as given in publication doi:10.1101/617571.
These are yes or no findings as the source states them, for the method shown. In cells and extracts the contact can be indirect. Some results given as binding are weak or reduced against the parent protein; the word gives no strength.

By UniProt entry, the sequences of proteins in these tests, tags left out.
UniProt Q8IHZ9: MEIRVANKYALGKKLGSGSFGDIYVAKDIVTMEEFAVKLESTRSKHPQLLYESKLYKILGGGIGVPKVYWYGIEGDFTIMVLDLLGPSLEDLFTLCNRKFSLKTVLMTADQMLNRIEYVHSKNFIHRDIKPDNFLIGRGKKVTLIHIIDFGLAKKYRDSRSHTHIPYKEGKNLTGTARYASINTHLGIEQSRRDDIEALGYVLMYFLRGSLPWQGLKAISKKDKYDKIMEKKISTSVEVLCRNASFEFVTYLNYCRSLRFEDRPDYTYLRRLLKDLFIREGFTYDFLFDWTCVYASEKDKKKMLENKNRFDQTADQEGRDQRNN

B1: GTPase-activating protein and Vps9 domain-containing protein 1 (GAPVD1) (protein, UniProt Q14C86 1-1478)
chain: MVKLDIHTLAHHLKQERLYVNSEKQLIQRLNADVLKTAEKLYRTAWIAKQQRINLDRLIITSAEASPAECCQHAKILEDTQFVDGYKQLGFQETAYGEFLSRLRENPRLIASSLVAGEKLNQENTQSVIYTVFTSLYGNCIMQEDESYLLQVLRYLIEFELKESDNPRRLLRRGTCAFSILFKLFSEGLFSAKLFLTATLHEPIMQLLVEDEDHLETDPNKLIERFSPSQQEKLFGEKGSDRFRQKVQEMVESNEAKLVALVNKFIGYLKQNTYCFPHSLRWIVSQMYKTLSCVDRLEVGEVRAMCTDLLLACFICPAVVNPEQYGIISDAPINEVARFNLMQVGRLLQQLAMTGSEEGDPRTKSSLGKFDKSCVAAFLDVVIGGRAVETPPLSSVNLLEGLSRTVVYITYSQLITLVNFMKSVMSGDQLREDRMALDNLLANLPPAKPGKSSSLEMTPYNTPQLSPATTPANKKNRLPIATRSRSRTNMLMDLHMDHEGSSQETIQEVQPEEVLVISLGTGPQLTPGMMSENEVLNMQLSDGGQGDVPVDENKLHGKPDKTLRFSLCSDNLEGISEGPSNRSNSVSSLDLEGESVSELGAGPSGSNGVEALQLLEHEQATTQDNLDDKLRKFEIRDMMGLTDDRDISETVSETWSTDVLGSDFDPNIDEDRLQEIAGAAAENMLGSLLCLPGSGSVLLDPCTGSTISETTSEAWSVEVLPSDSEAPDLKQEERLQELESCSGLGSTSDDTDVREVSSRPSTPGLSVVSGISATSEDIPNKIEDLRSECSSDFGGKDSVTSPDMDEITHGAHQLTSPPSQSESLLAMFDPLSSHEGASAVVRPKVHYARPSHPPPDPPILEGAVGGNEARLPNFGSHVLTPAEMEAFKQRHSYPERLVRSRSSDIVSSVRRPMSDPSWNRRPGNEERELPPAAAIGATSLVAAPHSSSSSPSKDSSRGETEERKDSDDEKSDRNRPWWRKRFVSAMPKAPIPFRKKEKQEKDKDDLGPDRFSTLTDDPSPRLSAQAQVAEDILDKYRNAIKRTSPSDGAMANYESTGDNHDRDLSSKLLYHSDKEVMGDGESAHDSPRDEALQNISADDLPDSASQAAHPQDSAFSYRDAKKKLRLALCSADSVAFPVLTHSTRNGLPDHTDPEDNEIVCFLKVQIAEAINLQDKNLMAQLQETMRCVCRFDNRTCRKLLASIAEDYRKRAPYIAYLTRCRQGLQTTQAHLERLLQRVLRDKEVANRYFTTVCVRLLLESKEKKIREFIQDFQKLTAADDKTAQVEDFLQFLYGAMAQDVIWQNASEEQLQDAQLAIERSVMNRIFKLAFYPNQDGDILRDQVLHEHIQRLSKVVTANHRALQIPEVYLREAPWPSAQSEIRTISAYKTPRDKVQCILRMCSTIMNLLSLANEDSVPGADDFVPVLVFVLIKANPPCLLSTVQYISSFYASCLSGEESYWWMQFTAAVEFIKTIDDRK
B2: Sorting nexin 22 (SNX22) (protein, UniProt Q96L94 1-193)
chain: MLEVHIPSVGPEAEGPRQSPEKSHMVFRVEVLCSGRRHTVPRRYSEFHALHKRIKKLYKVPDFPSKRLPNWRTRGLEQRRQGLEAYIQGILYLNQEVPKELLEFLRLRHFPTDPKASNWGTLREFLPGDSSSQQHQRPVLSFHVDPYVCNPSPESLPNVVVNGVLQGLYSFSISPDKAQPKAACHPAPLPPMP

Molecular target: Plasmodium falciparum casein kinase 1, GFP-tagged (PfCK1-GFP) (Plasmodium falciparum (3D7)) (UniProt Q8IHZ9)
Assay: co-IP

Binder | binding
B1 | binds
B2 | binds
